We go through one compound from US11377496B2, “Targeting agent antibody conjugates and uses thereof” (The Scripps Research Institute, priority 2013, dated 2022).

The chains behind the UniProt entries cited, without tags or fusion partners.
UniProt Q04609, whole entry: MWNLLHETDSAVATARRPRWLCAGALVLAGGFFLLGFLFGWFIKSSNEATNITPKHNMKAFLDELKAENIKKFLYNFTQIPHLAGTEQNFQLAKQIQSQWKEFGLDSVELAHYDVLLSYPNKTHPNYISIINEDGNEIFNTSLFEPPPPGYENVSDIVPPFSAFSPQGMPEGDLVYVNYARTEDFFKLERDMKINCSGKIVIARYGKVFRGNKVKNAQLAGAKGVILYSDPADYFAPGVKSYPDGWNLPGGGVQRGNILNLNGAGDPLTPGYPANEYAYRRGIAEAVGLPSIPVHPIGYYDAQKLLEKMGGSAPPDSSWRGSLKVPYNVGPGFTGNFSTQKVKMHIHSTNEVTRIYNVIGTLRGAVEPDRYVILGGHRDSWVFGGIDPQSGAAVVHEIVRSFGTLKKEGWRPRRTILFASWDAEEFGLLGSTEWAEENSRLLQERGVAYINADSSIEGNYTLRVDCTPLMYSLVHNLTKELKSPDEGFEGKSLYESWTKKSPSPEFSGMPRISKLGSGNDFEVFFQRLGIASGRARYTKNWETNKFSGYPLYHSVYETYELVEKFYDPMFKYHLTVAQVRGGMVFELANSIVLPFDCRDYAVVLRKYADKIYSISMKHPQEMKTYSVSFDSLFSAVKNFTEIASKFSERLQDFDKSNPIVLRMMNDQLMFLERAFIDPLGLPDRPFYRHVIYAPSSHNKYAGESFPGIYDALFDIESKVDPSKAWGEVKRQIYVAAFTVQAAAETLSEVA

The assay concerns the target rhPSMA (Homo sapiens, UniProt Q04609). Kind of assay: PSMA inhibition assay. The class given is biochemical. To be noted: Trials 1-3; substrate NAAG.

A number of entries come with more than one value. This is not the full list of results. The source may hold further records. Results that share an entry do not match, cause unknown; they may come from other doses, times, organisms or constructs than stated.

The term Km denotes the concentration of substrate that gives half-maximal velocity. For `CC(=O)N[C@@H](CC(=O)O)C(=O)N[C@@H](CCC(=O)O)C(=O)O` [NAAG, N-acetyl-aspartyl-glutamate], the Km is 109 nM and 755 nM.
